Measurements as given in US8143259B2, “Cold menthol receptor antagonists” (Janssen Pharmaceutica, NV, priority 2008, dated 2012).
Structures were worked out from names or drawings and are uncertain.

The chains behind the UniProt entries cited, without tags or fusion partners. Residues count along the entry.
UniProt Q1A7N1, 1-1104: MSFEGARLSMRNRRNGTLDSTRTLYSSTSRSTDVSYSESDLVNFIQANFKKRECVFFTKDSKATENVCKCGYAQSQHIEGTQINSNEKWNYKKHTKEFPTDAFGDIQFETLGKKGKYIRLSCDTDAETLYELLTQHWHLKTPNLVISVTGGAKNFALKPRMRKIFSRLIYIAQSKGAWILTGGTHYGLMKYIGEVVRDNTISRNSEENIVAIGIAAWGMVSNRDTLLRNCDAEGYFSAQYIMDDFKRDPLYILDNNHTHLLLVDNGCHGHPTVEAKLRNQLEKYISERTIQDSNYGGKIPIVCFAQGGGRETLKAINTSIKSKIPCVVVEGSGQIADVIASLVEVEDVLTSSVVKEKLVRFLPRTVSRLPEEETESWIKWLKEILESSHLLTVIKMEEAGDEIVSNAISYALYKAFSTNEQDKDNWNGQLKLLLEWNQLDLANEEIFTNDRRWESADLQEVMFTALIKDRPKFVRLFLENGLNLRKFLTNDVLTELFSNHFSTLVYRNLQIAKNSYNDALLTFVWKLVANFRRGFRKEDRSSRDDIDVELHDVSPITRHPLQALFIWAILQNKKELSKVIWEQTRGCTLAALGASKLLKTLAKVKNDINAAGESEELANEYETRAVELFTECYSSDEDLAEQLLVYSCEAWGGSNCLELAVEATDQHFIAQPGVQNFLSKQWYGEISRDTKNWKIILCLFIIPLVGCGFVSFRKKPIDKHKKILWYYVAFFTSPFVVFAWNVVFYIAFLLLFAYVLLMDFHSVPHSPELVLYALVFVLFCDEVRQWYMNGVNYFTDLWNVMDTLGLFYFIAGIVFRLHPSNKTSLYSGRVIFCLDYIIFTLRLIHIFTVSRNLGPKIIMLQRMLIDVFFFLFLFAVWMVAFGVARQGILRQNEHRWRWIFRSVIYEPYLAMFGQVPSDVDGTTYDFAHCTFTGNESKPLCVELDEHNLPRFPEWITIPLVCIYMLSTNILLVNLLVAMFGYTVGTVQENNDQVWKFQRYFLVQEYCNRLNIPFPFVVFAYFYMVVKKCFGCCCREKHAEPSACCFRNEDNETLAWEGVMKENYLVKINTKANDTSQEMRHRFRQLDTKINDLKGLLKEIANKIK

Biological target: canine TRPM8 (Canis lupus familiaris, UniProt Q1A7N1)
Experiment: In Vitro Canine TRPM8 Functional Assay (Ca2+ fluorescence, icilin activation)
Assay type: cell-based
Conditions: HEK293 cells stably expressing canine TRPM8
Experimental: The functional activity of compounds of the formula (I) was determined by measuring changes in intracellular calcium concentration using a Ca^2+-sensitive fluorescent dye. The changes in fluorescent signal were monitored by a fluorescence plate reader, either a FLIPR™ (Molecular Devices) or FDSS (Hamamatsu). Increases in intracellular Ca^2+ concentration were readily detected upon activation with icilin.
HEK293 cells stably expressing canine TRPM8 were routinely grown as monolayers in Dulbecco's minimum essential medium supplemented with 10% FBS, 2 mM L-glutamine, 100 units/mL penicillin, 100 ug/mL streptomycin and 400 μg/mL G418. Cells were maintained in 5% CO2 at 37° C. […] Cells were challenged with compounds of the formula (I) (at varying concentrations) and intracellular Ca^2+ was measured for 5 min prior to the addition of icilin to all wells to achieve a final concentration that produces approximately an 80% maximal response. […]
Maximal fluorescence intensity (FI) achieved upon addition of icilin was exported from the FLIPR or FDSS software and further analyzed using GraphPad Prism 3.02 (Graph Pad Software Inc., CA, U.S.A.). […] Curves were generated using the average of quadruplicate wells for each data point, were analyzed using nonlinear regression of either sigmoidal dose response or sigmoidal dose response (variable slope).

With `O=C(C(Nc1ccccc1F)c1cc2cccnc2s1)N1CCCC1c1ccccc1F` (stereo not shown) the IC50 was 48 nM.
